Assay results reported in the supplement of paper PMC12823440, “Inhibitors supercharge kinase turnover through native proteolytic circuits” (Nature, 2025).
Counter-ions that a name gives are not always drawn. The list shows a part of the results. Hit calls seldom repeat between salt and free forms of one compound.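 Kinases, fused to nanoluciferase, were expressed in K562 cells; luminescence was measured every 4 h from 2 to 18 h as percent of control (DMSO = 100%, positive control = 0%). A time point is decreased if signal falls significantly (2 sigma). Hits were called by the authors by a rule that is not shown; the count of time points alone does not decide it.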

By UniProt entry, the sequences of proteins in these tests, tags left out.
UniProt P29317, whole entry: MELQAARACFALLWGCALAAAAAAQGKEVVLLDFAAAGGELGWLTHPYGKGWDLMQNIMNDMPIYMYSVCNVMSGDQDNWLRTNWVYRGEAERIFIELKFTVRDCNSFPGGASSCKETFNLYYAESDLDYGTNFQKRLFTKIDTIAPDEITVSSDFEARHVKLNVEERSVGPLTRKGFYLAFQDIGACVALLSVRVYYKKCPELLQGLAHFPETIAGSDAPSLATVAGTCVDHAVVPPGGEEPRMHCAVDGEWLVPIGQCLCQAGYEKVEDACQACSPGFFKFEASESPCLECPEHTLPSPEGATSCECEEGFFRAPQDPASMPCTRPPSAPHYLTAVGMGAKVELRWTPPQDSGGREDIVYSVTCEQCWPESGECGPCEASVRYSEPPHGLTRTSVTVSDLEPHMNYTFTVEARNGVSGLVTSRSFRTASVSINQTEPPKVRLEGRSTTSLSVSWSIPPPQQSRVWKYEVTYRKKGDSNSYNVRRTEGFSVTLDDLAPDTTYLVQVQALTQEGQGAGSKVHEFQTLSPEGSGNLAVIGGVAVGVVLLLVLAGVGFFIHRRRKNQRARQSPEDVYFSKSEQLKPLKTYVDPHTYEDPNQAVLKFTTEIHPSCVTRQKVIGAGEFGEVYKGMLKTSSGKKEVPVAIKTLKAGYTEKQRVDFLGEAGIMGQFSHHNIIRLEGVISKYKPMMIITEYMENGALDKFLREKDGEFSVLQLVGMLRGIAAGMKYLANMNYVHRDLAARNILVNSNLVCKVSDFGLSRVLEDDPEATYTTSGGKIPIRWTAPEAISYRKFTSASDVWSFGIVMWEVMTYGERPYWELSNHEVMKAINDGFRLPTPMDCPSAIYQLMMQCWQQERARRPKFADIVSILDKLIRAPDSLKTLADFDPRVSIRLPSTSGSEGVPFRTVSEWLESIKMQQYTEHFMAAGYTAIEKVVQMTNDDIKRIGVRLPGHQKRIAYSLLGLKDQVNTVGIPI
UniProt P21860, whole entry: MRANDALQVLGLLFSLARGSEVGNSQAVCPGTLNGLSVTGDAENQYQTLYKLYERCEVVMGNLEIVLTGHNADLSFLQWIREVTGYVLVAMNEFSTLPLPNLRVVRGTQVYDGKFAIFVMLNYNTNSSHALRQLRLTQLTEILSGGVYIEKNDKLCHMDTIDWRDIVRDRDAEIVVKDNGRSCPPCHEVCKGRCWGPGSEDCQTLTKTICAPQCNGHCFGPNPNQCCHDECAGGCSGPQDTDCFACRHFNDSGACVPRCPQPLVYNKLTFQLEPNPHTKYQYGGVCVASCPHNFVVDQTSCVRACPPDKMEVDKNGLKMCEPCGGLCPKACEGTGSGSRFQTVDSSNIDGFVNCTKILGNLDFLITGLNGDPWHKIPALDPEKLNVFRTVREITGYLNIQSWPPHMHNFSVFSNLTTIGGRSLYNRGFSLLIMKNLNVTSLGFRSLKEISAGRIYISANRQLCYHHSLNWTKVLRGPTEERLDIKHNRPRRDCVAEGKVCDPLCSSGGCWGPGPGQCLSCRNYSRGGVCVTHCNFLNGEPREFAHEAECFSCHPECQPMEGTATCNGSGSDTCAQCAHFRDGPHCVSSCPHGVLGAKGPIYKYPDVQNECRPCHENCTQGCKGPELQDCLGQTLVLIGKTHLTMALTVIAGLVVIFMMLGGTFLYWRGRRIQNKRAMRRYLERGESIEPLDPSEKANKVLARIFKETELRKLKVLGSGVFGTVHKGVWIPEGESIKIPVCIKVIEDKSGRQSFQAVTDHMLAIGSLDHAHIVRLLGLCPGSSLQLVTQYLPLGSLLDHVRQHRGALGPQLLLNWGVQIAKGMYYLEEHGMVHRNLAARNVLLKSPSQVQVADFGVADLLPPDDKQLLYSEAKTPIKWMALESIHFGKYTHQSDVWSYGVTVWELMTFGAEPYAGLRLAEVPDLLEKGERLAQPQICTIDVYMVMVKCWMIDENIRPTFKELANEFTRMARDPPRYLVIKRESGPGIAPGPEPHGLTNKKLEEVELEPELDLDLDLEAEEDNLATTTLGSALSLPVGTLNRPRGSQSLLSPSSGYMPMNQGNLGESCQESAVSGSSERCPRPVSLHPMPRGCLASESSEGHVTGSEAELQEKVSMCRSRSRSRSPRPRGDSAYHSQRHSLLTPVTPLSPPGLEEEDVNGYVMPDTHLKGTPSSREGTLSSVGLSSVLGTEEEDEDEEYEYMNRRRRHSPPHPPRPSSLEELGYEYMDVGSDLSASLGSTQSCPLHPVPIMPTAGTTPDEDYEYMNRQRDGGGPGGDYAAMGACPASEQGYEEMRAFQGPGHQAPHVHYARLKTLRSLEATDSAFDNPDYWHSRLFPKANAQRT
UniProt Q15303, whole entry R711C: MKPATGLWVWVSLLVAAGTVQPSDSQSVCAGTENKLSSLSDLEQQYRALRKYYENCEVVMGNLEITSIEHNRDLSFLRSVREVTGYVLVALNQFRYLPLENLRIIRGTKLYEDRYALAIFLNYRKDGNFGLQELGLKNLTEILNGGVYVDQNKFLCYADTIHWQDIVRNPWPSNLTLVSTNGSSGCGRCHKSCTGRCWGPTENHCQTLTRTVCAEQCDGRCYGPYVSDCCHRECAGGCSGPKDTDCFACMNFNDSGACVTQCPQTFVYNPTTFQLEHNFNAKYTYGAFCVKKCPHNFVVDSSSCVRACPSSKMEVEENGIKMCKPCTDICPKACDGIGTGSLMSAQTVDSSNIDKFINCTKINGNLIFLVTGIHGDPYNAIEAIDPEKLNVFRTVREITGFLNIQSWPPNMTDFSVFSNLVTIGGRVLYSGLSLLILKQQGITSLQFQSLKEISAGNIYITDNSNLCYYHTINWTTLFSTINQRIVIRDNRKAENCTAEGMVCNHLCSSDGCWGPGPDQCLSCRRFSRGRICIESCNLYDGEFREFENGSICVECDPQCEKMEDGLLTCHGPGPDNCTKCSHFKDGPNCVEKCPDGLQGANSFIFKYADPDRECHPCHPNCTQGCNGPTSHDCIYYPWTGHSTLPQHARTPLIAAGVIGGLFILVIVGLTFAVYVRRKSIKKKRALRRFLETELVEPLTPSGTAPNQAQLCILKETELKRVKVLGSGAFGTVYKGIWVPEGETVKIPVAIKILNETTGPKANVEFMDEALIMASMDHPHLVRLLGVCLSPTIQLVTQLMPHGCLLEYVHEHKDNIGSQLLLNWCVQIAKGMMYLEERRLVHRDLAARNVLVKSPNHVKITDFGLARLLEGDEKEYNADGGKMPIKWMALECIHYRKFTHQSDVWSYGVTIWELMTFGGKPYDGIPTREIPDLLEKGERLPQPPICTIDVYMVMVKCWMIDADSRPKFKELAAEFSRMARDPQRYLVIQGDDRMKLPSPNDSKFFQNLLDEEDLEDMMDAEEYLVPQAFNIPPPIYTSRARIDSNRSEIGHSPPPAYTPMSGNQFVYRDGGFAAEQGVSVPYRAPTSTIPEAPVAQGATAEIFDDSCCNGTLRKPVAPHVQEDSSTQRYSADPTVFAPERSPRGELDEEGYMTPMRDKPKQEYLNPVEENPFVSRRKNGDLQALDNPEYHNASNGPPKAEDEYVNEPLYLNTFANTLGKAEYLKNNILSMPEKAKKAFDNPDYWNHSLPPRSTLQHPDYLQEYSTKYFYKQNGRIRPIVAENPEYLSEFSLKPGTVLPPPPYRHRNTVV

Legend:
Assay in all cases: kinase-Nluc reporter destabilization hit call (1 = scored as downregulated) (binary); higher = compound decreases kinase abundance
Details in all cases: K562, 2-18 h
EGFR = EGFR (UniProt P00533)
EGFR_G719S = EGFR_G719S (UniProt P00533)
EGFR_G719S_T790M = EGFR_G719S_T790M (UniProt P00533)
EGFR_L718V = EGFR_L718V (UniProt P00533)
EGFR_L858R = EGFR_L858R (UniProt P00533)
EGFR_L861Q = EGFR_L861Q (UniProt P00533)
EGFR_T790M = EGFR_T790M (UniProt P00533)
EPHA2 = EPHA2 (UniProt P29317)
ERBB3 = ERBB3 (UniProt P21860)
[1] = biological target: ERBB4_R711C (clone: ERBB4_mut) (UniProt Q15303)

Measured: kinase-Nluc reporter destabilization hit call

C#Cc1cccc(Nc2ncnc3cc(OCCOC)c(OCCO)cc23)c1 [Desmethyl Erlotinib]
inactive: EGFR; 10 µM 0 | EGFR_G719S; 10 µM 0 | EGFR_G719S_T790M; 10 µM 0 | EGFR_L718V; 10 µM 0 | EGFR_L858R; 10 µM 0 | EGFR_L861Q; 10 µM 0 | EGFR_T790M; 10 µM 0 | EPHA2; 10 µM 0 | ERBB3; 10 µM 0 | [1]; 10 µM 0

COc1cc2nccc(Oc3ccc(NC(=O)C4(C(=O)Nc5ccc(F)cc5)CC4)cc3)c2cc1OC [Cabozantinib]
inactive: EGFR; 2.5 µM 0 | EGFR_G719S; 2.5 µM 0 | EGFR_G719S_T790M; 2.5 µM 0 | EGFR_L718V; 2.5 µM 0 | EGFR_L858R; 2.5 µM 0 | EGFR_L861Q; 2.5 µM 0 | EGFR_T790M; 2.5 µM 0 | EPHA2; 2.5 µM 0 | ERBB3; 2.5 µM 0 | [1]; 2.5 µM 0

COc1ccc(S(=O)(=O)Nc2ccccc2CN(C)C/C=C/c2ccc(Cl)cc2)cc1 [KN-92 (phosphate)]
inactive: EGFR; 2.5 µM 0 | EGFR_G719S; 2.5 µM 0 | EGFR_G719S_T790M; 2.5 µM 0 | EGFR_L718V; 2.5 µM 0 | EGFR_L858R; 2.5 µM 0 | EGFR_L861Q; 2.5 µM 0 | EGFR_T790M; 2.5 µM 0 | EPHA2; 2.5 µM 0 | ERBB3; 2.5 µM 0 | [1]; 2.5 µM 0

Cc1ccc(NC(=O)c2ccc(CN3CCN(C)CC3)cc2)cc1Nc1nc(-c2cccnc2)cs1 [Masitinib]
inactive: EGFR; 2.5 µM 0 | EGFR_G719S; 2.5 µM 0 | EGFR_G719S_T790M; 2.5 µM 0 | EGFR_L718V; 2.5 µM 0 | EGFR_L858R; 2.5 µM 0 | EGFR_L861Q; 2.5 µM 0 | EGFR_T790M; 2.5 µM 0 | EPHA2; 2.5 µM 0 | ERBB3; 2.5 µM 0 | [1]; 2.5 µM 0

COC(=O)[C@H](CC(C)C)NC(=O)c1ccc(NC[C@@H](N)CS)cc1-c1cccc2ccccc12
inactive: EGFR; 10 µM 0 | EGFR_G719S; 10 µM 0 | EGFR_G719S_T790M; 10 µM 0 | EGFR_L718V; 10 µM 0 | EGFR_L858R; 10 µM 0 | EGFR_L861Q; 10 µM 0 | EGFR_T790M; 10 µM 0 | EPHA2; 10 µM 0 | ERBB3; 10 µM 0 | [1]; 10 µM 0

O=C(c1ccc(F)c(F)c1Nc1ccc(I)cc1F)N1CC(O)([C@@H]2CCCCN2)C1 [Cobimetinib]
inactive: EGFR; 10 µM 0 | EGFR_G719S; 10 µM 0 | EGFR_G719S_T790M; 10 µM 0 | EGFR_L718V; 10 µM 0 | EGFR_L858R; 10 µM 0 | EGFR_L861Q; 10 µM 0 | EGFR_T790M; 10 µM 0 | EPHA2; 10 µM 0 | ERBB3; 10 µM 0 | [1]; 10 µM 0

C[C@H](CCC(=O)NCCS(=O)(=O)O)[C@H]1CC[C@H]2[C@@H]3[C@@H](O)C[C@@H]4C[C@H](O)CC[C@]4(C)[C@H]3CC[C@]12C [Tauroursodeoxycholate (dihydrate)]
inactive: EGFR; 10 µM 0 | EGFR_G719S; 10 µM 0 | EGFR_G719S_T790M; 10 µM 0 | EGFR_L718V; 10 µM 0 | EGFR_L858R; 10 µM 0 | EGFR_L861Q; 10 µM 0 | EGFR_T790M; 10 µM 0 | EPHA2; 10 µM 0 | ERBB3; 10 µM 0 | [1]; 10 µM 0

Cc1nc2ccc(-n3c(-c4nonc4N)nc4cnccc43)cc2[nH]1
inactive: EGFR; 10 µM 0 | EGFR_G719S; 10 µM 0 | EGFR_G719S_T790M; 10 µM 0 | EGFR_L718V; 10 µM 0 | EGFR_L858R; 10 µM 0 | EGFR_L861Q; 10 µM 0 | EGFR_T790M; 10 µM 0 | EPHA2; 10 µM 0 | ERBB3; 10 µM 0 | [1]; 10 µM 0

COc1cc2nccc(Oc3ccc(NC(=O)C4(C(=O)Nc5ccc(F)cc5)CC4)cc3)c2cc1OC [Cabozantinib (S-malate)]
inactive: EGFR; 10 µM 0 | EGFR_G719S; 10 µM 0 | EGFR_G719S_T790M; 10 µM 0 | EGFR_L718V; 10 µM 0 | EGFR_L858R; 10 µM 0 | EGFR_L861Q; 10 µM 0 | EGFR_T790M; 10 µM 0 | EPHA2; 10 µM 0 | ERBB3; 10 µM 0 | [1]; 10 µM 0

CN1CCCN(C(=O)c2cccc(-c3ccc(/C=C4/C(=O)Nc5ccc(Cl)cc54)o3)c2)CC1 [CX-6258 (hydrochloride)]
inactive: EGFR; 2.5 µM 0 | EGFR_G719S; 2.5 µM 0 | EGFR_G719S_T790M; 2.5 µM 0 | EGFR_L718V; 2.5 µM 0 | EGFR_L858R; 2.5 µM 0 | EGFR_L861Q; 2.5 µM 0 | EGFR_T790M; 2.5 µM 0 | EPHA2; 2.5 µM 0 | ERBB3; 2.5 µM 0 | [1]; 2.5 µM 0

CN(C)C(=N)NC(=N)N [Metformin (hydrochloride)]
inactive: EGFR; 10 µM 0 | EGFR_G719S; 10 µM 0 | EGFR_G719S_T790M; 10 µM 0 | EGFR_L718V; 10 µM 0 | EGFR_L858R; 10 µM 0 | EGFR_L861Q; 10 µM 0 | EGFR_T790M; 10 µM 0 | EPHA2; 10 µM 0 | ERBB3; 10 µM 0 | [1]; 10 µM 0

Random excerpt: 2 entries already listed.
O=C(c1ccc(F)c(F)c1Nc1ccc(I)cc1F)N1CC(O)([C@@H]2CCCCN2)C1 [Cobimetinib]
inactive: EGFR; 10 µM 0 | EGFR_G719S; 10 µM 0 | EGFR_G719S_T790M; 10 µM 0 | EGFR_L718V; 10 µM 0 | EGFR_L858R; 10 µM 0 | EGFR_L861Q; 10 µM 0 | EGFR_T790M; 10 µM 0 | EPHA2; 10 µM 0 | ERBB3; 10 µM 0 | [1]; 10 µM 0

C#Cc1cccc(Nc2ncnc3cc(OCCOC)c(OCCO)cc23)c1 [Desmethyl Erlotinib]
inactive: EGFR; 10 µM 0 | EGFR_G719S; 10 µM 0 | EGFR_G719S_T790M; 10 µM 0 | EGFR_L718V; 10 µM 0 | EGFR_L858R; 10 µM 0 | EGFR_L861Q; 10 µM 0 | EGFR_T790M; 10 µM 0 | EPHA2; 10 µM 0 | ERBB3; 10 µM 0 | [1]; 10 µM 0

Carrying on.

COc1ccnc(C[S+]([O-])c2nc3cc(-n4cccc4)ccc3[nH]2)c1C (stereo not given) [Ilaprazole (sodium)]
inactive: EGFR; 10 µM 0 | EGFR_G719S; 10 µM 0 | EGFR_G719S_T790M; 10 µM 0 | EGFR_L718V; 10 µM 0 | EGFR_L858R; 10 µM 0 | EGFR_L861Q; 10 µM 0 | EGFR_T790M; 10 µM 0 | EPHA2; 10 µM 0 | ERBB3; 10 µM 0 | [1]; 10 µM 0

COc1cc(/C=C/C(=O)O)ccc1O [Ferulic acid]
inactive: EGFR; 10 µM 0 | EGFR_G719S; 10 µM 0 | EGFR_G719S_T790M; 10 µM 0 | EGFR_L718V; 10 µM 0 | EGFR_L858R; 10 µM 0 | EGFR_L861Q; 10 µM 0 | EGFR_T790M; 10 µM 0 | EPHA2; 10 µM 0 | ERBB3; 10 µM 0 | [1]; 10 µM 0

CN1CCCN(C(=O)c2cccc(-c3ccc(/C=C4/C(=O)Nc5ccc(Cl)cc54)o3)c2)CC1
inactive: EGFR; 2.5 µM 0 | EGFR_G719S; 2.5 µM 0 | EGFR_G719S_T790M; 2.5 µM 0 | EGFR_L718V; 2.5 µM 0 | EGFR_L858R; 2.5 µM 0 | EGFR_L861Q; 2.5 µM 0 | EGFR_T790M; 2.5 µM 0 | EPHA2; 2.5 µM 0 | ERBB3; 2.5 µM 0 | [1]; 2.5 µM 0
